This passage reports binding results from patent US20200079861A1.

Experiment [1] has as its target T1, biotinylated GITR (GITR-bio) (UniProt Q9Y5U5).
T1 sequence (biotinylated, site not stated, looked up): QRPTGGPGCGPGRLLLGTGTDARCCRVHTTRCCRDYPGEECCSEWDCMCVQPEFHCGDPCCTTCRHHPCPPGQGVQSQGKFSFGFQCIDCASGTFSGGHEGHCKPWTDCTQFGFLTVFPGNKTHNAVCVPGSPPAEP
Kind of experiment: flow cytometry, antibody expressed on 1624-5 pre-B cells, GITR-bio detected with streptavidin-PE. In general terms: A flow cytometer gives signals particle by particle.

For experiment [2], the target named is T1, biotinylated GITR (GITR-bio). Kind of experiment: flow cytometry competition, GITR-bio pre-incubated with 2 µg antibody.

Results are given in words; binding and its absence hold for the method and conditions named. Some binding calls cover weakened binding; strength is not graded here.

B1: chimeric parental 231-32-15 antibody (antibody, V domains shown)
VH: QVQLLQSGTELVRPGVSVKISCKGSGYTFTDYAMYWVKQSHAKSLEWIGVIRTYSGDVTYNQKFKDKATMTVDKSSSIAYMELARLSSEDSAIYYCAKSGTVRGFAYWGQGTLVTVSS
VL: DIVMTQSPSSLTVTAGEKVIMSCKSSQSLLNSGNQKNYLTWYQQKPGQPPKLLIYWASTRESGVPDRFTGSGSGTDFTLTISSVQAEDLAVYHCQNDYSYPYTFGGGTKLEIK
For the molecule B1, the binding result in experiment [1] is listed as “binds”.

B2: pab1875 (antibody, V domains shown)
VH: QVQLVQSGAEVKKPGASVKVSCKGSGYTFTDYAMYWVRQAPGQGLEWIGVIRTYSGDVTYNQKFKDRATMTVDKSISTAYMELSRLRSDDTAVYYCAKSGTVRGFAYWGQGTLVTVSS
VL: DIVMTQSPPTLSLSPGERVTLSCKSSQSLLNSGNQKNYLTWYQQKPGQAPRLLIYWASTRESGIPARFSGSGSGTDFTLTISSLQPEDFAVYHCQNDYSYPYTFGQGTKLEIK
Regarding B2, in experiment [2], the binding entry is “binds”.

B3: pab1876 (antibody, human IgG1, V domains shown)
VH: QVQLVQSGAEVKKPGASVKVSCKGSGYTFTDYAMYWVRQAPGQGLEWIGVIRTYSGDVTYNQKFKDRATMTVDKSISTAYMELSRLRSDDTAVYYCAKSGTVRGFAYWGQGTLVTVSS
VL: DIVMTQSPDSLAVSLGERATINCKSSQSLLNSGNQKNYLTWYQQKPGQPPKLLIYWASTRESGVPDRFSGSGSGTDFTLTISSLQAEDVAVYHCQNDYSYPYTFGQGTKLEIKR
Take B3: the binding entry in experiment [2] is listed as “binds”.
